From patent US20240368242A1
Results are given in words; binding and its absence hold for the method and conditions named. Some results given as binding are weak or reduced against the parent protein; the word gives no strength.

By UniProt entry, the sequences of proteins in these tests, tags left out. Residues count along the entry.
UniProt P27512, residues 24-193: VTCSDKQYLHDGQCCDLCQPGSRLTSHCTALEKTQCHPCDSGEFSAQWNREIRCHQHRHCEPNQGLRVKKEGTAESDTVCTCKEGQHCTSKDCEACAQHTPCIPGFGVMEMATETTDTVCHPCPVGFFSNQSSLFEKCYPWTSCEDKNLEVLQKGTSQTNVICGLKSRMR

Molecular target: recombinant murine CD40 protein (murine) (UniProt P27512)
Experiment: ELISA, plate-bound CD40, detection with αCD40L and HRP detection antibody; dilution series [right panel]

B1: mCD40L Standard (ligand)
chain: MQRGDEDPQIAAHVVSEANSNAASVLQWAKKGYYTMKSNLVMLENGKQLTVKREGLYYVYTQVTFCSNREPSSQRPFIVGLWLKPSSGSERILLKAANTHSSSQLCEQQSVHLGGVFELQAGASVFVNVTEASQVIHRVGFSSFGLLKL
- binding: binds
